Laboratory results from publication PMC4869170.
No constants are given. Whether binding was seen depends on the method and setting. Binding seen in cells or lysates may run through a third protein. These calls come from enrichment with a bait or labelling near it, and not all partners need be listed. For some of these results: No binding means not detected with the bait.

Chains of the proteins cited; added tags and fusions are not shown.
UniProt Q8WVS4: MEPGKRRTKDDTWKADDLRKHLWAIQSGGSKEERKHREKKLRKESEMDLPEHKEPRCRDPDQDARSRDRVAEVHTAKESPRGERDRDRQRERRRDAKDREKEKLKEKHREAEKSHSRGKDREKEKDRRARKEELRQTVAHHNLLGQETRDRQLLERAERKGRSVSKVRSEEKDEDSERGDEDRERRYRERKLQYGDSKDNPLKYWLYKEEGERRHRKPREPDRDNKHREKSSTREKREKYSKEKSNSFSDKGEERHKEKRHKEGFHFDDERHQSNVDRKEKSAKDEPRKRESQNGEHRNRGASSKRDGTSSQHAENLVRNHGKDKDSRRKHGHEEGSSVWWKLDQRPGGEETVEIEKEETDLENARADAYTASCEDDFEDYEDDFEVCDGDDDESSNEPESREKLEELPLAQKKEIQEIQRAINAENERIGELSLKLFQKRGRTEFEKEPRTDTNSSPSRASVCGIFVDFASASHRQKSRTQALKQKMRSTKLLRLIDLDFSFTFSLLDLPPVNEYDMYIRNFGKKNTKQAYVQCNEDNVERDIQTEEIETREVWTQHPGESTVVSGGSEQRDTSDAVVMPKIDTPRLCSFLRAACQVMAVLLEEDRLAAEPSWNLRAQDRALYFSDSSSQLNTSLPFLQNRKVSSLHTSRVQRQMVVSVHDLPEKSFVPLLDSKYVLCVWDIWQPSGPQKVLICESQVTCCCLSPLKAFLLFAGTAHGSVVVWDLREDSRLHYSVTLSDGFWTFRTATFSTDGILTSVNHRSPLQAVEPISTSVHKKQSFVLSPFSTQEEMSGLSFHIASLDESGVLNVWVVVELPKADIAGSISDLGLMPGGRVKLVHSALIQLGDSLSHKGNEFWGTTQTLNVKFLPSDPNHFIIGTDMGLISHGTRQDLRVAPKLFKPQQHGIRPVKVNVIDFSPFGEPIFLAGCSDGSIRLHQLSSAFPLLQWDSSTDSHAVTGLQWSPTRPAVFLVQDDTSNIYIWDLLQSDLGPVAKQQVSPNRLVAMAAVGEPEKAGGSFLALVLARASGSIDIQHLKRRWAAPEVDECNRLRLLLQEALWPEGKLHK
UniProt Q9Y266: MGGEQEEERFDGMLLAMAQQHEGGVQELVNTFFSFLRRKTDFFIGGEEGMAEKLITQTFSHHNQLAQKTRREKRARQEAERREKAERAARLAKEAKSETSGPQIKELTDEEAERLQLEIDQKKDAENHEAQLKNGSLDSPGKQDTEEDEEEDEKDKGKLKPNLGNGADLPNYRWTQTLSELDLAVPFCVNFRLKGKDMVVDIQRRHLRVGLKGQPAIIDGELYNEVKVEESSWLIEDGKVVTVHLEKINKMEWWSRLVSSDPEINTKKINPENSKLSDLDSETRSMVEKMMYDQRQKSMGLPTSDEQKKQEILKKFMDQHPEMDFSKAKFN

Key:
Test in all cases: affinity purification with mass spectrometry; SF-TAP-tagged bait overexpressed in HEK293T; lysis in 0.5% NP-40 in TBS (30 mM Tris-HCl pH 7.4, 150 mM NaCl); two steps at 4 °C: Strep-Tactin superflow (desthiobiotin elution), then anti-FLAG M2 agarose (FLAG peptide elution); LC-MS/MS; interactions scored by socioaffinity
DNAI2 (human) = target: T1, DNAI2 (human) (UniProt Q9GZS0)
T1 sequence: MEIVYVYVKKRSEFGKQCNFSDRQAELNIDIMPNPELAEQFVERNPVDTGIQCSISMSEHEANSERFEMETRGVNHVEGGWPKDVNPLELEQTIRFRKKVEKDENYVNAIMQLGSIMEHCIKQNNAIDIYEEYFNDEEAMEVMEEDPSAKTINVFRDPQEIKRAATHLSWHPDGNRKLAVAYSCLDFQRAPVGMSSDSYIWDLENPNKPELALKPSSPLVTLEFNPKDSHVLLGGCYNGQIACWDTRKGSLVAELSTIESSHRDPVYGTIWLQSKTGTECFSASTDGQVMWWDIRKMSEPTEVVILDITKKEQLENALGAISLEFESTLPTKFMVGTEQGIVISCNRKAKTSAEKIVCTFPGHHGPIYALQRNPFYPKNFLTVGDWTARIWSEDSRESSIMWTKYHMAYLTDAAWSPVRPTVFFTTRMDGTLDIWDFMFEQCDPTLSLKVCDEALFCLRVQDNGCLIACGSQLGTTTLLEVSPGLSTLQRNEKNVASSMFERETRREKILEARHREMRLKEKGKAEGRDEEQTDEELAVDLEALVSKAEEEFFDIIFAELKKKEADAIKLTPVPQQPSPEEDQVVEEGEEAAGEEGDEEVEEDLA

SPAG16 (human) = target: T2, SPAG16 (human) (UniProt Q8N0X2)
T2 sequence: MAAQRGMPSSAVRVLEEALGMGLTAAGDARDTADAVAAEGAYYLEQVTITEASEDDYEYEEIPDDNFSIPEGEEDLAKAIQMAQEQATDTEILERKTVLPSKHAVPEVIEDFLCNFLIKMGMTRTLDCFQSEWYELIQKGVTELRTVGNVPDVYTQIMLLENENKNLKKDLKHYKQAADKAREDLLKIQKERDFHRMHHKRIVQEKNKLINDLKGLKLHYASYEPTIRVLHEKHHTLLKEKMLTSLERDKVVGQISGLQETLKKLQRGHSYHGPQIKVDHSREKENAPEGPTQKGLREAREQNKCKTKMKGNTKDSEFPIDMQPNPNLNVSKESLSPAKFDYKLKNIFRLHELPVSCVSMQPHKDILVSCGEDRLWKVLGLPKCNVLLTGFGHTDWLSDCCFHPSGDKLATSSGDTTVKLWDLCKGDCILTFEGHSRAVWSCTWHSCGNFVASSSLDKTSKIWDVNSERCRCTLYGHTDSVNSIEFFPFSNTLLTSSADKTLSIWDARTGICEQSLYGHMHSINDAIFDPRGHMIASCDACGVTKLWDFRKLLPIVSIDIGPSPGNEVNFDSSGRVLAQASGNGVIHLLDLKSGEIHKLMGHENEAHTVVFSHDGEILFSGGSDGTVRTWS

WDR35 (human) = target: T3, WDR35 (human) (UniProt Q9P2L0)
T3 sequence: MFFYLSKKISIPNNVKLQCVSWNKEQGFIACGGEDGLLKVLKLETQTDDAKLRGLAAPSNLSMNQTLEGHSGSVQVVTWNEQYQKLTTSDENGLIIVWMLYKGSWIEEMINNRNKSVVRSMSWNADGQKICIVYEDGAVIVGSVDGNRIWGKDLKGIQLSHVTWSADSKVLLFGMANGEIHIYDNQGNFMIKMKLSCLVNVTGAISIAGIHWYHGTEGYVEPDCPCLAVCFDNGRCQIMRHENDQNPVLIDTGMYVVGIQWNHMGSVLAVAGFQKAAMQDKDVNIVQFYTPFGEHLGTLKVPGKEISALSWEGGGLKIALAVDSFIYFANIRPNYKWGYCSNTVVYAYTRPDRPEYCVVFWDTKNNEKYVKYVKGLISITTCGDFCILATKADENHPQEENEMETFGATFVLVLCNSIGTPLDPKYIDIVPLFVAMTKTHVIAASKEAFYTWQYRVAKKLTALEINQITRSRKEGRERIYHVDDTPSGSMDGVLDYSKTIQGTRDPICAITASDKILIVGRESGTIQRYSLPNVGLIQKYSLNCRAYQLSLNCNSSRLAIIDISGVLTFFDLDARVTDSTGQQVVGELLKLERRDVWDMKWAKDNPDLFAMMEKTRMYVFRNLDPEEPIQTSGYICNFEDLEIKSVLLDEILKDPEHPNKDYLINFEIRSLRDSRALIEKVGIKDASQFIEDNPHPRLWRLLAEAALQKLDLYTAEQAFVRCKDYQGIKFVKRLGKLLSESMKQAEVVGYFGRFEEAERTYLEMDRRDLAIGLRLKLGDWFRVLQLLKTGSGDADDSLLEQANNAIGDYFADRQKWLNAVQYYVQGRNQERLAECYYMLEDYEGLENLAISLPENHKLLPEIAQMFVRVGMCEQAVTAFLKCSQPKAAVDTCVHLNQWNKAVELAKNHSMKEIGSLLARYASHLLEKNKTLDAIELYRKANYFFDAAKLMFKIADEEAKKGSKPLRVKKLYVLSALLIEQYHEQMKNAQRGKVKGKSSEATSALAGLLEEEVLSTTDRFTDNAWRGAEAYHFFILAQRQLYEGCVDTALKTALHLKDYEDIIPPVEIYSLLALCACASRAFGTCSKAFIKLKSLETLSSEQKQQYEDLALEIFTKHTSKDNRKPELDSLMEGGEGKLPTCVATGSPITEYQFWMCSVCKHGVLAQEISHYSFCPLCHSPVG

WDR60 (human) = WDR60 (human) (UniProt Q8WVS4)

NUDC (from UniProt Q9Y266 1-331)
binding (DNAI2 (human)): no binding | binding (SPAG16 (human)): no binding | binding (WDR35 (human)): binds | binding (WDR60 (human)): binds
